Our source for the binding values is PMC3776556, “Crystal structures of the CPAP/STIL complex reveal its role in centriole assembly and human microcephaly” (eLife, 2013).

Results are given in words; binding and its absence hold for the method and conditions named. Binding seen in cells or lysates may run through a third protein. Some entries that bind do so weakly or less than the wild type. Sequences can lack the tags named with a protein.

The assay has as its target T1, C. elegans SAS-5 N-terminal domain (aa 1–202)-6xHis (C. elegans) (UniProt Q20010).
T1 sequence: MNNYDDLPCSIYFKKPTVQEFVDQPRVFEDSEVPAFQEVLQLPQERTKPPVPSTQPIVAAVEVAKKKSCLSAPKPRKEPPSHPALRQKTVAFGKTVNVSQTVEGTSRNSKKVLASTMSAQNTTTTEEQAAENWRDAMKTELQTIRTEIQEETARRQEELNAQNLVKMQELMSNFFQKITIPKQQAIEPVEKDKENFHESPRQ
In words: pull-down; SAS-5-6xHis fragments on Ni-NTA beads (bait), ^35S-labelled in vitro translated SAS-4 fragments (prey); 25 mM HEPES, 100 mM NaCl, 20 mM imidazole, 1 mM DTT, 10% sucrose, 0.02% Tween-20, pH 7.4, 4°C; autoradiography; only the target purified.

B1: C. elegans SAS-4, full-length, in vitro translated (protein, UniProt P34402 1-808)
chain: MASDENIGADGEQKPSRPFLRKGQGTARFRMPRNNKTSAGAPPTSELSSASSPSINVPRFSLSNALPNSARTVDSGISNEDETRPPTTASLPMDQPSLSSSPENRLNPAPSVAEEHGHSGQHAEEEEDNDTDEVSAMPSFVPDEPSTLVNSDHELSDDALKYKNAAAEFKAFERRMDSMRSASTITTSLATPSSCAPSNSSEPPTRSTPIMNDLGVGPNNHNWPSSMQELSGISLETPQARPLGSNRINQLVRSEAQTGISLLQHHERPTVTAPLRRNDMMNSSRQNPQNGNVQDENRPEHVYDQPIHVPGSSLDRQKLEIEIRRHRNLNIQLRDTIAHLDYAEESVHTTKRQLEEKISEVNNFKKELIEEFKKCKKGVEEEFEKKFEKIKEDYDELYEKLKRDQRDLERDQKILKKGTGERNKEFTETIATLRDKLRASETKNAQYRQDIRVRDEKLKKKDEEIEKLQKDGNRLKSTLQTLEKRVKQLRTEKERDDKEKEMFAKVAMNRKTSNPVPPVLNQSVPISITSNGPSRHPSSSSLTTFRKPSTSNRERGVSWADEPNEQSLEAVPQEFLMMPVKEMPGKFGKCTIYRDSLGETSKVTDTIANGLLFEYSNGDLRWVNRQNAVNIYISAVDKTVRIDLPTYNISIIHTFQRQVEVLRPGNNITLISIKRREVRTDLIYQNGMYKTEIFNRDGRYVTKDFSNQEVSRKYNPGTHTYRDNQCRYVLVTDYNDFELVEPEFRLRWYQGDPTGLNNQYILKIIGRPECSEKTLRLEVNLSTCEGTLETAEMIGDKRRKTTLFQWKK
modifications: ^35S-Met labelling
As for B1, the binding result is “binds”.
